The values that follow come from PMC9687869, “Redox Regulation of Signaling Complex between Caveolin-1 and Neuronal Calcium Sensor Recoverin” (Biomolecules, 2022).

The chains behind the UniProt entries cited, without tags or fusion partners. Where a name states a change or a piece, a line headed by the entry shows the natural chain unless it says otherwise. A line that says so, or that is headed by a name, gives the form on record, which may keep a tag or linker. Residues count along the entry.
N-terminal fragment of caveolin-1 M1-R101 with N-terminal His6-tag (Cav) (Q03135, residues 1-101): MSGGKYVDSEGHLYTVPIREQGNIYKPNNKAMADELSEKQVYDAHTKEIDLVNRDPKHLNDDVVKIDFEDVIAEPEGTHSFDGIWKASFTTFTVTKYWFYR
N-terminally tagged caveolin-1 fragment M1-R101 with Y14E substitution (CavE) (Q03135, form named): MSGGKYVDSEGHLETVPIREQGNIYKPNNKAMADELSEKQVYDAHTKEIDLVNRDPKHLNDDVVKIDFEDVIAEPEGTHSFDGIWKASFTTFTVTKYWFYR

The target of test [1] is N-terminally tagged caveolin-1 fragment M1-R101 with Y14E substitution (CavE) (UniProt Q03135). Briefly: condition: only with 2 mM Ca2+ (1 mM CaCl2 in the methods); analyte 2.5 to 30 uM; SPR; Cav or CavE immobilised by amine coupling (ProteOn GLH chip); analyte 2.5-30 uM recoverin form; 10 mM HEPES pH 7.4, 150 mM NaCl, 2 mM DTT (none for dRec), 0.05% TWEEN 20, with calcium (1 mM CaCl2 in the methods, 2 mM Ca2+ in Table 2); 25 C; heterogeneous ligand model; both purified.

Test [2] deals with N-terminal fragment of caveolin-1 M1-R101 with N-terminal His6-tag (Cav) (UniProt Q03135). Kind of test: pull-down; Cav or CavE covalently attached to BrCN-activated Sepharose CL-4B; 50 ug recoverin form; 20 mM Tris-HCl pH 7.5, 100 mM NaCl, 2 mM MgCl2, 2 mM EGTA (calcium-free); 30 min at room temperature; bound protein analysed by SDS-PAGE; both purified.
Test [3] has as its target N-terminally tagged caveolin-1 fragment M1-R101 with Y14E substitution (CavE) (UniProt Q03135). The description is as above.

Results are given in words; binding and its absence hold for the method and conditions named. Some results given as binding are weak or reduced against the parent protein; the word gives no strength.

B1: recombinant myristoylated recoverin, reduced monomer (Rec) (protein, UniProt P21457 1-202)
chain: MGNSKSGALSKEILEELQLNTKFTEEELSSWYQSFLKECPSGRITRQEFQTIYSKFFPEADPKAYAQHVFRSFDANSDGTLDFKEYVIALHMTSAGKTNQKLEWAFSLYDVDGNGTISKNEVLEIVTAIFKMISPEDTKHLPEDENTPEKRAEKIWGFFGKKDDDKLTEKEFIEGTLANKEILRLIQFEPQKVKEKLKEKKL
modifications: N-terminal myristoyl group (myristoylation rate more than 95%)
With B1, the binding entry in test [1] was “no binding”; in test [2] it was “binds”.

B2: recoverin C39D mutant (Rec-C39D) (natural protein, UniProt P21457 1-202, looked up)
chain: MGNSKSGALSKEILEELQLNTKFTEEELSSWYQSFLKEDPSGRITRQEFQTIYSKFFPEADPKAYAQHVFRSFDANSDGTLDFKEYVIALHMTSAGKTNQKLEWAFSLYDVDGNGTISKNEVLEIVTAIFKMISPEDTKHLPEDENTPEKRAEKIWGFFGKKDDDKLTEKEFIEGTLANKEILRLIQFEPQKVKEKLKEKKL
modifications: N-terminal myristoyl group (myristoylation rate more than 95%)
notes: recoverin with C39D, which mimics oxidation of cysteine-39 to a sulfenic/sulfinic/sulfonic group; also called thiol oxidation mimicking mutant; oxidized monomer mimic
For B2, the binding result in test [3] is on record as “binds”.
